# Experimental data: publication doi:10.1101/830166
# Amino acid sequences for entries named in this document (tags omitted). A change or cut given only in a name is not applied to a line headed by its entry. Residues count along the entry.
# UniProt P61006: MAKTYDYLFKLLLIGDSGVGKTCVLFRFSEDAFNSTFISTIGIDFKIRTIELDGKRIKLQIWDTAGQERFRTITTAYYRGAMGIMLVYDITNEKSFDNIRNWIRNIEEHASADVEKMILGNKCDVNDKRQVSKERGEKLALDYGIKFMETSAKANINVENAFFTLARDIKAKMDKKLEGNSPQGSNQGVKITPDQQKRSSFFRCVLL
# UniProt Q5IJ48: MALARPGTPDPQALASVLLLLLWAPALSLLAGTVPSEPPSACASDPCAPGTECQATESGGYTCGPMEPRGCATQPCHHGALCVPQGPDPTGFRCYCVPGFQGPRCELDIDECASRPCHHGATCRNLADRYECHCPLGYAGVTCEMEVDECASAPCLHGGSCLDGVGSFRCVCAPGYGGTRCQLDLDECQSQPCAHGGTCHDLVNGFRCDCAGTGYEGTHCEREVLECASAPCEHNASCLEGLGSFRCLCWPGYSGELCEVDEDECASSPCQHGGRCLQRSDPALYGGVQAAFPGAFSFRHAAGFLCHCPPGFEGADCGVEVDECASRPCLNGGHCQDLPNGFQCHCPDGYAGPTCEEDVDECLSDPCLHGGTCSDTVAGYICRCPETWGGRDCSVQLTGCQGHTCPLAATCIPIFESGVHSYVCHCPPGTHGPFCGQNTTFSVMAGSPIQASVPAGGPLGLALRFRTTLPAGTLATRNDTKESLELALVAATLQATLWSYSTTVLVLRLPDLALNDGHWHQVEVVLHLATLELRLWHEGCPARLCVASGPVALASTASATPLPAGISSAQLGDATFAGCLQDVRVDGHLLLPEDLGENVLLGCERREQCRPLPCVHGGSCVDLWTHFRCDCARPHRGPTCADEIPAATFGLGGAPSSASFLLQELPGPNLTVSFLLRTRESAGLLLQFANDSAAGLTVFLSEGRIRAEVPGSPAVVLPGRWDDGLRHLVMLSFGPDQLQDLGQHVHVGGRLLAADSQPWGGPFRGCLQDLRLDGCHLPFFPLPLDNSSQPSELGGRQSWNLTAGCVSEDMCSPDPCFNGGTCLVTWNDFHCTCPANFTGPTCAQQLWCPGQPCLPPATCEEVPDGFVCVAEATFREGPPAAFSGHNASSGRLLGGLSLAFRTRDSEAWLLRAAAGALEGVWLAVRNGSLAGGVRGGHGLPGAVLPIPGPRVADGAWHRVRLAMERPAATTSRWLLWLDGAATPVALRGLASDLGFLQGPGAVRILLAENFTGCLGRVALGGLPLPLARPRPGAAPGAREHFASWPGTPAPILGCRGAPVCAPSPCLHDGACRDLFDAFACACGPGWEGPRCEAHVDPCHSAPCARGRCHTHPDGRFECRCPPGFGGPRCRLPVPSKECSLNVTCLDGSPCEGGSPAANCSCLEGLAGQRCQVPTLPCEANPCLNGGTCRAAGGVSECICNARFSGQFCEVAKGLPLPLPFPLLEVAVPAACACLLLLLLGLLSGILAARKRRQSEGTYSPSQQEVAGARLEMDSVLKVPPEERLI
# biotinylated peptide mimicking the cytoplasmic part of CRB2 (CRB2 cyt: amino-acids 1249 to 1285): residues 1249-1285 of Q5IJ48
# These are yes or no findings as the source states them, for the method shown. Binding seen in cells or lysates may run through a third protein. Some entries that bind do so weakly or less than the wild type. For part of these data: Tags and fused reporters may be left off the sequences shown.
# How the values were obtained:
# human GFP∷RAB8A (human) = human GFP∷RAB8A (human) (UniProt P61006); assay: co-IP
# [1] = target: biotinylated peptide mimicking the cytoplasmic part of CRB2 (CRB2 cyt: amino-acids 1249 to 1285) (human) (UniProt Q5IJ48); assay: pull-down
Molecule,binding (human GFP∷RAB8A (human)),binding [1]
AU1∷CRB2 (from UniProt Q5IJ48 29-1285),binds weakly,–
"PALS1 (Protein Associated with Lin Seven) (protein, UniProt Q8N3R9 1-675) MTTSHMNGHVTEESDSEVKNVDLASPEEHQKHREMAVDCPGDLGTRMMPIRRSAQLERIRQQQEDMRRRREEEGKKQELDLNSSMRLKKLAQIPPKTGIDNPMFDTEEGIVLESPHYAVKILEIEDLFSSLKHIQHTLVDSQSQEDISLLLQLVQNKDFQNAFKIHNAITVHMNKASPPFPLISNAQDLAQEVQTVLKPVHHKEGQELTALLNTPHIQALLLAHDKVAEQEMQLEPITDERVYESIGQYGGETVKIVRIEKARDIPLGATVRNEMDSVIISRIVKGGAAEKSGLLHEGDEVLEINGIEIRGKDVNEVFDLLSDMHGTLTFVLIPSQQIKPPPAKETVIHVKAHFDYDPSDDPYVPCRELGLSFQKGDILHVISQEDPNWWQAYREGDEDNQPLAGLVPGKSFQQQREAMKQTIEEDKEPEKSGKLWCAKKNKKKRKKVLYNANKNDDYDNEEILTYEEMSLYHQPANRKRPIILIGPQNCGQNELRQRLMNKEKDRFASAVPHTTRSRRDQEVAGRDYHFVSRQAFEADIAAGKFIEHGEFEKNLYGTSIDSVRQVINSGKICLLSLRTQSLKTLRNSDLKPYIIFIAPPSQERLRALLAKEGKNPKPEELREIIEKTREMEQNNGHYFDTAIVNSDLDKAYQELLRLINKLDTEPQWVPSTWLR",–,binds
"HA∷PAR6α (protein, UniProt Q9NPB6 1-346) MARPQRTPARSPDSIVEVKSKFDAEFRRFALPRASVSGFQEFSRLLRAVHQIPGLDVLLGYTDAHGDLLPLTNDDSLHRALASGPPPLRLLVQKRAEADSSGLAFASNSLQRRKKGLLLRPVAPLRTRPPLLISLPQDFRQVSSVIDVDLLPETHRRVRLHKHGSDRPLGFYIRDGMSVRVAPQGLERVPGIFISRLVRGGLAESTGLLAVSDEILEVNGIEVAGKTLDQVTDMMVANSHNLIVTVKPANQRNNVVRGASGRLTGPPSAGPGPAEPDSDDDSSDLVIENRQPPSSNGLSQGPPCWDLHPGCRHPGTRSSLPSLDDQEQASSGWGSRIRGDGSGFSL",–,binds
